# Test results taken from the supplement of paper PMC7830784.
# Counter-ions that a name gives are not always drawn. The list shows a part of the results. Single values are uncertain here, since repeats match poorly.
# System: Brugia pahangi adult female
# Experiment: motility inhibition on day 3 relative to DMSO vehicle; higher = more active
# Settings: 10 µM; 3 days
row,SMILES,motility inhibition on day 3
1,CCCC(CCC)C(=O)O [Valproic acid sodium],13.2%
2,CN[C@@H]1CCc2[nH]c3ccc(C(N)=O)cc3c2C1 [Frovatriptan Succinate Monohydrate],0.732%
3,CNC(=O)c1c(I)c(NC(C)=O)c(I)c(C(=O)O)c1I [iothalamic acid],18.3%
4,COC1=CC(=O)C[C@@H](C)[C@]12Oc1c(Cl)c(OC)cc(OC)c1C2=O [griseofulvin],0.626%
5,CCC(=O)NCC[C@@H]1CCc2ccc3c(c21)CCO3 [ramelteon],4.46%
6,CN(C)CCC(c1ccc(Cl)cc1)c1ccccn1 (stereo unspecified) [chlorpheniramine maleate],< 0%
7,COc1cc(N)c(Cl)cc1C(=O)NC1CCN(CCCOc2ccc(F)cc2)CC1OC (stereo unspecified) [Cisapride monohydrate],< 0%
8,OCC(O)CN1CCN(c2ccccc2)CC1 (stereo unspecified) [dropropizine],11.9%
9,CCn1cc(C(=O)O)c(=O)c2cc(F)c(N3CCNCC3)cc21 [norfloxacin],3.36%
10,NCC1OC(OC2C(N)CC(N)C(OC3OC(CO)C(O)C(N)C3O)C2O)C(N)C(O)C1O (stereo unspecified) [becanamycin sulfate],9.75%
11,CC1(C)S[C@@H]2[C@H](N3C(=O)[C@@H](c4ccccc4)NC3(C)C)C(=O)N2[C@H]1C(=O)O [hetacillin potassium],18.4%
12,CCOC(=O)C1=C(C)NC(C)=C(C(=O)OC)C1c1cccc([N+](=O)[O-])c1 (stereo unspecified) [Nitrendipine],38.9%
13,NS(=O)(=O)c1cc2c(cc1C(F)(F)F)NC(Cc1ccccc1)NS2(=O)=O (stereo unspecified) [bendrofumethiazide],19.4%
14,CC(CN1c2ccccc2Sc2ccccc21)N(C)C (stereo unspecified) [Promethazine hydrochloride],< 0%
15,O=C(c1ccc(OCCN2CCCCC2)cc1)c1c(-c2ccc(O)cc2)sc2cc(O)ccc12 [raloxifene hydrochloride],43.2%
16,CCOC(=O)[C@H](CCc1ccccc1)N[C@@H](C)C(=O)N1CC2(C[C@H]1C(=O)O)SCCS2 [Spirapril Hydrochloride],1%
17,Nc1nc(N)nc(-c2cc(Cl)ccc2Cl)n1 [irsogladine maleate],< 0%
18,CCN1CCCC1CNC(=O)c1cc(S(=O)(=O)CC)c(N)cc1OC (stereo unspecified) [amisulpride],16.3%
19,S=P(N1CC1)(N1CC1)N1CC1 [thiotepa],< 0%
20,CCCOc1ccc2nc(NC(=O)OC)[nH]c2c1 [oxybendazole],3.36%
21,CCCCOc1ccc(OCCCN2CCOCC2)cc1 [pramoxine hydrochloride],26.2%
22,CCCCOc1ccc(OCCCN2CCOCC2)cc1 [Pramoxine],15.4%
23,CC1CCc2cc(F)cc3c(=O)c(C(=O)O)cn1c23 (stereo unspecified) [flumequine],23.9%
24,O=C(NCC1CCCCN1)c1cc(OCC(F)(F)F)ccc1OCC(F)(F)F (stereo unspecified) [Flecainide acetate],< 0%
25,COc1ccccc1OCCNCC(O)COc1cccc2[nH]c3ccccc3c12 (stereo unspecified) [carvedilol],13.1%
26,CC(C)c1nc(CN(C)C(=O)N[C@H](C(=O)N[C@@H](Cc2ccccc2)C[C@H](O)[C@H](Cc2ccccc2)NC(=O)OCc2cncs2)C(C)C)cs1 [ritonavir],51.9%

# Exported as tab-separated lines: part of the list above.
row	SMILES	motility inhibition on day 3
4	COC1=CC(=O)C[C@@H](C)[C@]12Oc1c(Cl)c(OC)cc(OC)c1C2=O [griseofulvin]	0.626%
5	CCC(=O)NCC[C@@H]1CCc2ccc3c(c21)CCO3 [ramelteon]	4.46%
6	CN(C)CCC(c1ccc(Cl)cc1)c1ccccn1 (stereo unspecified) [chlorpheniramine maleate]	< 0%

# Remaining list, next part

row,SMILES,motility inhibition on day 3
1,CC(=O)Oc1cccc(C(=O)O)c1OC(C)=O [dipyrocetyl],< 0%
2,CC1OC1P(=O)(O)O (stereo unspecified) [fosphomycin],10.1%
3,CC(C)[C@H]1CC[C@H](C(=O)N[C@H](Cc2ccccc2)C(=O)O)CC1 [nateglinide],18.6%
4,Nc1ccc(S(N)(=O)=O)cc1 [sulfanilamide],21.1%
5,CCN1CCC[C@H]1CNC(=O)c1cc(S(N)(=O)=O)ccc1OC,12%
6,CCOc1nc2cccc(C(=O)OC(C)OC(=O)OC3CCCCC3)c2n1Cc1ccc(-c2ccccc2-c2nn[nH]n2)cc1 (stereo unspecified) [candesartan cilextil],12.8%
7,CC(CCc1ccc(O)cc1)NCCc1ccc(O)c(O)c1 (stereo unspecified) [Dobutamine hydrochloride],12.4%
8,CC(CCc1ccc(O)cc1)NCCc1ccc(O)c(O)c1 (stereo unspecified) [dobutamine hydrochloride],17.3%
9,CC[C@]12CCCN3CCc4c(n(c5ccccc45)[C@@](O)(C(=O)OC)C1)[C@@H]32 [vincamine],< 0%
10,CCC(C)(C)c1ccc(CC(C)CN2C[C@@H](C)O[C@@H](C)C2)cc1 (stereo partly specified) [amorolfine hydrochloride],4.39%
11,CCCc1nc(C(C)(C)O)c(C(=O)OCc2oc(=O)oc2C)n1Cc1ccc(-c2ccccc2-c2nnn[nH]2)cc1 [olmesartan medoxomil],15.7%
12,Cn1c(=O)c2c(ncn2CC(O)CO)n(C)c1=O (stereo unspecified) [dyphylline],3.62%
13,Nc1nccs1 [aminothiazole],< 0%
14,NC(=O)c1cccnc1 [niacinamide],9.13%
15,C[C@@H]1CC2C3C[C@H](F)C4=CC(=O)C=C[C@]4(C)[C@@]3(F)[C@@H](O)C[C@]2(C)[C@@]1(O)C(=O)COC(=O)C(C)(C)C (stereo partly specified) [flumethazone pivalate],22.5%
16,O=C(O)CCc1nc2ccccc2[nH]1 [procodazole],< 0%
17,C=C(NC(=O)C(=C)NC(=O)c1csc(C2=N[C@@H]3c4csc(n4)[C@H]4NC(=O)c5csc(n5)[C@H]([C@](C)(O)[C@@H](C)O)NC(=O)[C@H]5CSC(=N5)/C(=C/C)NC(=O)[C@H]([C@@H](C)O)NC(=O)c5csc(n5)[C@]3(CC2)NC(=O)[C@H](C)NC(=O)C(=C)NC(=O)[C@H](C)NC(=O)[C@H]([C@@H](C)CC)N[C@@H]2C=Cc3c([C@H](C)O)cc(nc3[C@H]2O)C(=O)O[C@@H]4C)n1)C(N)=O [thiostrepton],< 0%
18,NC(=O)C1(N2CCCCC2)CCN(CCCC(=O)c2ccc(F)cc2)CC1 [pipamperone],< 0%
19,CCCCCCCCCCCCCCCC[N+](C)(C)C [cetrimonium bromide],83.1%
20,CC1=C(C(=O)O)N2C(=O)[C@@H](NC(=O)[C@H](N)c3ccc(O)cc3)[C@H]2SC1 [cefadroxil],16.7%
21,CC(C)(Oc1ccc(C2CC2(Cl)Cl)cc1)C(=O)O (stereo unspecified) [ciprofibrate],4.1%
22,O=C(O)c1cc(O)c(O)c(O)c1 [gallic acid],< 0%
23,CCN(CC)C(=O)N1CCN(C)CC1 [diethylcarbamazine citrate],1.61%
24,O=P(O)(O)C(O)(Cc1cccnc1)P(=O)(O)O [risedronate sodium],< 0%
25,COc1ccc(-n2nc(CCC(=O)N(C)O)cc2-c2ccc(Cl)cc2)cc1 [tepoxalin],25.1%
26,CCCCC(CC)COC(=O)c1ccccc1O (stereo unspecified) [octisalate],< 0%

# Fetched one by one from above, 3 records:
row,SMILES,motility inhibition on day 3
26,CCCCC(CC)COC(=O)c1ccccc1O (stereo unspecified) [octisalate],< 0%
19,CCCCCCCCCCCCCCCC[N+](C)(C)C [cetrimonium bromide],83.1%
23,CC1CCc2cc(F)cc3c(=O)c(C(=O)O)cn1c23 (stereo unspecified) [flumequine],23.9%

# Continuation.

row,SMILES,motility inhibition on day 3
1,CCN(CCCc1ccccc1)CCCc1ccccc1 [alverine citrate],12.4%
2,CC(=O)[C@H]1CC[C@H]2[C@@H]3CC=C4C[C@@H](OC(=O)CCC(=O)O)CC[C@]4(C)[C@H]3CC[C@]12C [pregnenolone succinate],2.1%
3,CC(CCc1ccc(O)cc1)NCC(O)c1ccc(O)cc1 (stereo unspecified) [ractopamine hydrochloride],9.81%
4,CC[C@]1(O)C[C@@H]2CN(CCc3c([nH]c4ccccc34)[C@@](C(=O)OC)(c3cc4c(cc3OC)N(C)[C@H]3[C@@](O)(C(=O)OC)[C@H](OC(C)=O)[C@]5(CC)C=CCN6CC[C@]43[C@@H]65)C2)C1 [vinblastine sulfate],47.4%
5,Clc1ccc(COC(Cn2ccnc2)c2ccc(Cl)cc2Cl)cc1 (stereo unspecified) [econazole nitrate],99.6%
6,NC(=O)NO [hydroxyurea],35.1%
7,Clc1ccccc1C(c1ccccc1)(c1ccccc1)n1ccnc1 [clotrimazole],85.3%
8,CO/N=C1\CN(c2nc3c(cc2F)c(=O)c(C(=O)O)cn3C2CC2)CC1CN (stereo unspecified) [gemifloxacin mesylate],0.132%
9,CN1CCC[C@H]1c1cccnc1 [nicotine ditartrate],< 0%
10,O=S(=O)(O)CCSSCCS(=O)(=O)O [dimesna],3.67%
11,CCCC(C(=O)OCCN(CC)CC)(c1ccccc1)c1ccccc1 [SKF-525A hydrochloride],24.6%
12,Cc1cc(CC(C)CC(C)(C)C)n(O)c(=O)c1 (stereo unspecified) [piroctone olamine],72.6%
13,Nc1nc(=O)c2c([nH]1)NCC(CNc1ccc(C(=O)N[C@@H](CCC(=O)O)C(=O)O)cc1)N2C=O (stereo partly specified) [leucovorin calcium],24.9%
14,COc1ccc2nc3cc(Cl)ccc3c(Nc3cc(CN4CCCC4)c(O)c(CN4CCCC4)c3)c2n1 [pyronaridine tetraphosphate],5.31%
15,CCCCOc1ccc(CC(=O)NO)cc1 [bufexamac],1.9%
16,CC(=O)OC(C)C[N+](C)(C)C (stereo unspecified) [methacholine chloride],34.6%
17,C=CCc1ccccc1OCC(O)CNC(C)C (stereo unspecified) [Alprenolol hydrochloride],21.9%
18,NC[C@H]1CC[C@H](C(=O)O)CC1 [tranexamic acid],4.47%
19,Oc1c(Cl)cc(Cl)cc1Sc1cc(Cl)cc(Cl)c1O [bithionol],81.3%
20,O=C(O)c1cc(=O)c2c(OCC(O)COc3cccc4oc(C(=O)O)cc(=O)c34)cccc2o1 [cromolyn sodium],< 0%
21,CC(=O)c1ccc2c(c1)N(CCCN1CCN(CCO)CC1)c1ccccc1S2 [acetophenazine maleate],5.78%
22,OC[C@H]1O[C@H](O[C@H]2[C@H](O)[C@@H](O)C(O)O[C@@H]2CO)[C@H](O)[C@@H](O)[C@@H]1O (stereo partly drawn) [d-(+)-maltose],22.6%
23,O=C1NC(c2ccccc2)(c2ccccc2)C(=O)N1COP(=O)(O)O [Fosphenytoin disodium salt hydrate],10.6%
24,CC(C)CCC[C@@H](C)[C@H]1CC[C@H]2[C@@H]3CC=C4C[C@@H](O)CC[C@]4(C)[C@H]3CC[C@]12C [cholesterol],1.48%
